The whole screen tested about 330,000 compounds, of which about 7,700 (2.3%) were called active. Inconclusive results, whose numbers are uncertain, are shown with a selection of clear calls. Calls come from the whole dose curve; as a rule, active = well fitted inhibition curve with a large enough effect; inconclusive = small, poorly fitted or top-dose-only effect, or effect the other way; inactive = flat fitted curve, though single readings scatter. Where the call is inconclusive, the potency comes from a doubtful curve fit.
test: qHTS screen for small molecules that inhibit ELG1-dependent DNA repair in human embryonic kidney (HEK293T) cells expressing luciferase-tagged ELG1; conditions: HEK293T ELG1-luciferase reporter, luminescence, 16 h, DNA damage induced by 5-fluorouridine; series mostly up to 46.1 µM; note: nearly all actives have a fitted effect of over 55% in size
In short: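 Step one: seed 2,000 cells per well. Step two: pin-transfer compound or DMSO alongside 5-fluorouridine. Step three: incubate 16 hr, 37 °C, 5% CO2. Step four: add ONE-Glo, wait 30 min, read luminescence.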
Potency is the fitted concentration of half-maximal effect.

SMILES | Potency
COc1cc(/C=C/C(=O)c2ccc3c(c2)OCCO3)cc(OC)c1OC | inconclusive: 20.6 µM [inhibitor, single point]
COc1ccc(C(=O)CC(=O)C(=O)Nc2cc(OC)c(OC)c(OC)c2)cc1 | inactive
COc1cccc(C2NC(=S)NC3=C2CCc2ccccc23)c1 (configuration not stated) | inactive
CCOC(=O)N1CCN(C(=O)CSc2nc(-c3cccc(C)c3)ns2)CC1 | inactive
CN(C)CCOc1nc(-c2ccccc2)nc2c1oc1ccccc12 | inactive
Cc1cc(/C=C2/C(=O)NN(c3ccccc3)C2=O)c(C)n1-c1cccc(O)c1 | inconclusive: 1.16 µM [activator, partial curve]
CN1CCCC1CCNS(=O)(=O)c1ccc(Br)cc1 (configuration not stated) | inconclusive: 9.2 µM [inhibitor, partial curve, poor fit]
O=c1[nH]c(=S)[nH]c(O)c1N=Nc1ccc(-c2ccccc2)cc1[N+](=O)[O-] | inactive
N#CC1=C(N)Oc2cc(O)c(C=Nc3ccccc3)cc2C1c1ccccc1 (configuration not stated) | inconclusive: 20.6 µM [inhibitor, single point]
Cc1cc(NC(=O)Nc2cc(Cl)ccc2C)no1 | inconclusive: 16.4 µM [inhibitor, single point]
Cc1cccc(NC(=O)CN(CC2CCCO2)C(=O)c2cc3ccccc3o2)c1C (configuration not stated) | inactive
CCOC(=O)Cn1c(=O)c2c(nc3n2CCCN3Cc2ccccc2)n(C)c1=O | inactive
COc1ccc(C)cc1NC(=O)CSCc1cc(=O)n2c(C)csc2n1 | inactive
COc1cc2c(cc1NC(=O)COC(=O)Cn1cnc3ccccc31)oc1ccccc12 | inconclusive: 20.6 µM [activator, partial curve]
COc1ccc(NC(=S)N(C)CC2COc3ccccc3O2)cc1 (configuration not stated) | inactive
Cc1ccc(NC(=O)c2ccc(OC(=O)c3cc4ccccc4o3)cc2)cc1 | inconclusive: 9.2 µM [activator, partial curve]
CCCc1cc(=O)oc2cc(C)cc(O)c12 | inactive
Cc1ccc(C(=O)NCCN2C3=NC[C@H](Cc4ccc(O)cc4)N3C[C@H]2Cc2ccc(O)cc2)cc1Br | inactive
COc1ccc(NC2c3ccccc3C(=O)N2c2ccccn2)cc1 (configuration not stated) | inconclusive: 20.6 µM [activator, single point]
O=C(NCc1ccc2c(c1)OCO2)NC1CCCCC1 | inconclusive: 16.4 µM [activator, partial curve]
COc1cc(C(=O)Nc2ccc3c(c2)CCCN3C(=O)c2ccco2)c([N+](=O)[O-])cc1OC | inconclusive: 4.61 µM [inhibitor, partial curve, poor fit]
Cc1ccc(C(=O)NC(=S)NCc2ccco2)cc1 | inconclusive: 23.1 µM [activator, single point]
Oc1cc(NCCN2CCOCC2)cc2cccnc12 | inconclusive: 25.9 µM [inhibitor, single point]
CC(=O)Nc1sc2c(c1C(c1ccccc1Cl)N1CCN(CCO)CC1)CCCC2 (configuration not stated) | inactive

Filtered by structure: those above with a Cl atom (2)
SMILES | Potency
Cc1cc(NC(=O)Nc2cc(Cl)ccc2C)no1 | inconclusive: 16.4 µM [inhibitor, single point]
CC(=O)Nc1sc2c(c1C(c1ccccc1Cl)N1CCN(CCO)CC1)CCCC2 (configuration not stated) | inactive

Carrying on:

SMILES | Potency
COc1ccc(/C=N/N2CCOCC2)cc1COc1ccc(F)cc1 | inconclusive: 3.26 µM [inhibitor, partial curve, poor fit]
Cc1ccccc1NC(=O)C(=O)NCc1ccccn1 | inconclusive: 14.6 µM [activator, partial curve]
CCOc1ccc(NC(=O)c2ccc(S(=O)(=O)N3CCOCC3)cc2)cc1 | inactive
Cc1cccn2cc(-c3c[nH]c4ccccc34)nc12 | inconclusive: 20.6 µM [activator, partial curve]
CCOc1ccccc1NC(=O)C(CC(C)C)NC(=O)C1CCC(C)CC1 (configuration not stated) | inactive
COc1ccccc1NC(=O)c1ccc2nc(C)sc2c1 | inconclusive: 20.6 µM [activator, single point]
N#Cc1ccccc1OCC(=O)NNC(=O)CCNC(=O)c1ccccc1 | inconclusive: 4.61 µM [activator, single point]
COc1cccc(-c2cc(C(=O)Nn3cnnc3)c3ccccc3n2)c1 | inactive
O=C(CSc1cccc(C(F)(F)F)c1)Nc1cc(S(=O)(=O)N2CCCC2)ccc1Cl | inactive
CCCCN(CC)C(=O)CSc1nc2n[nH]c(C)c2c(=N)n1-c1cccc(C)c1 | inconclusive: 29.1 µM [inhibitor, single point]
CSc1cccc(NC(=O)c2nnn(Cc3ccccc3)c2N)c1 | inconclusive: 29.1 µM [activator, single point]
Cc1cc(C)c(S(=O)(=O)N2CCN(c3ccc([N+](=O)[O-])c(NCC4CCCO4)c3)CC2)c(C)c1 (configuration not stated) | inconclusive: 4.61 µM [inhibitor, single point]
CCCn1c(SCC(=O)NCC)nc2sc3c(c2c1=O)CCC3 | inconclusive: 23.1 µM [activator, single point]
N/C(=N\OC(=O)c1ccco1)c1ccc(Br)cc1 | inconclusive: 8.2 µM [activator, partial curve]
O=C(COc1cccc(NC(=O)c2ccccc2)c1)c1ccc(F)cc1 | inconclusive: 29.1 µM [inhibitor, single point]
Cc1ccc2nc(CCCc3nc4ccc(C)cc4[nH]3)[nH]c2c1 | inconclusive: 18.3 µM [inhibitor, single point]
CC(=O)c1cnc(Nc2ccccc2)s1 | inconclusive: 20.6 µM [activator, single point]
CNC(=S)N/N=C/c1ccc(N(C)C)cc1 | inconclusive: 11.6 µM [activator, partial curve]
COc1ccc(C(=O)CC(c2ccccc2)S(=O)(=O)c2ccc(C)cc2)cc1 (configuration not stated) | inconclusive: 7.31 µM [activator, partial curve, poor fit]
COc1ccc(OC)c(S(=O)(=O)N(C)CC(=O)Nc2cc(Cl)ccc2OC)c1 | inconclusive: 23.1 µM [inhibitor, partial curve, poor fit]
Cc1cc(O)c(N)c(C)c1Cl | inactive
CCS(=O)(=O)c1ccc2oc(Nc3ccccc3Cl)nc2c1 | inconclusive: 9.2 µM [activator, partial curve]
COc1cc(/C=C(\C#N)c2nc3ccccc3s2)ccc1OCC(=O)Nc1ccccc1 | inactive

From PubChem BioAssay AID504467 (National Center for Advancing Translational Sciences (NCATS), 2011)
